# Assay results as given in PubChem BioAssay (EPA / NIEHS).
# Sequences of proteins named here, by UniProt entry; tags and fusion partners are left off. A change or cut given only in a name is not applied to a line headed by its entry.
# UniProt P15204: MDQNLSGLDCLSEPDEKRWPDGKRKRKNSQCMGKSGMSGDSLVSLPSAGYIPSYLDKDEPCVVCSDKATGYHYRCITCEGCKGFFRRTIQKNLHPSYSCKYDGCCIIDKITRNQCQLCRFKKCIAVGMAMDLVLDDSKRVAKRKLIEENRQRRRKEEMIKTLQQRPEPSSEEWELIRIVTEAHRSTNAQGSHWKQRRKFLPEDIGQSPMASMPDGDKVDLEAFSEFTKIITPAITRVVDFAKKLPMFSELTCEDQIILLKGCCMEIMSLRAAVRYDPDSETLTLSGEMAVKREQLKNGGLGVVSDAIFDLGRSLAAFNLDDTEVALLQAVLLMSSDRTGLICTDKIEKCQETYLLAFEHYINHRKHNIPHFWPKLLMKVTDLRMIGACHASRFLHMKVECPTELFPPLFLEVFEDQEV
# UniProt P19838: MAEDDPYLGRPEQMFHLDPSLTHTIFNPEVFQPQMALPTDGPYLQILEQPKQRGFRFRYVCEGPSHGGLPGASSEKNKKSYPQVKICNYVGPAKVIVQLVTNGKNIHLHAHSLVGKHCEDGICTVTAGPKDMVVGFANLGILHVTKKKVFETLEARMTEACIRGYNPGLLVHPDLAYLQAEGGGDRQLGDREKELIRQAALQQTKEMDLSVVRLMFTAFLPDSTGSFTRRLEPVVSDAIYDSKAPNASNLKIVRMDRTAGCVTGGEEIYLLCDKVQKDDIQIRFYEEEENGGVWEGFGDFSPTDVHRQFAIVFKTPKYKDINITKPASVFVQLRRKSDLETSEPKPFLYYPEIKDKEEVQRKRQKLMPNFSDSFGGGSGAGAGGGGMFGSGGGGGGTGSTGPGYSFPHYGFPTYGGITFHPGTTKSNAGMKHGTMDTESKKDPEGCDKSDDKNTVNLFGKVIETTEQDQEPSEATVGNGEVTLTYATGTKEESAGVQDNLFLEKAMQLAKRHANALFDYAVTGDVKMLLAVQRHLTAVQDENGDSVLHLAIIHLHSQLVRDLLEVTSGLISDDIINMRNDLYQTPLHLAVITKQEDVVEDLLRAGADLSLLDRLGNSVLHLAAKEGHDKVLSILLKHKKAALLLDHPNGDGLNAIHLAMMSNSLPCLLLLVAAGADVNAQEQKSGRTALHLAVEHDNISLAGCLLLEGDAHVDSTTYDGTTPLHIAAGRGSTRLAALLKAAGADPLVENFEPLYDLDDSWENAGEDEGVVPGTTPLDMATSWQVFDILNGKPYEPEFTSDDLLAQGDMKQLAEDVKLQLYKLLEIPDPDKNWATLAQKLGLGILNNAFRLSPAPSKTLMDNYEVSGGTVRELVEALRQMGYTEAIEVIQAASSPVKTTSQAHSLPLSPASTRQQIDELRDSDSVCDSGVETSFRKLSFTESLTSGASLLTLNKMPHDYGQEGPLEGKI
# For some of these results: This list holds what a sample rich in hits left over. Inconclusive results are not listed. The list shows a part of the results, in another mix than the full data. The source holds several records for some structures; these can differ, active in one and inactive in another. The source made the active and inactive calls. Rule for the calls, unless noted: active = hit-call score of the fitted dose curve at least 0.9, where 1 is the maximum; inactive = score below 0.9.
# What was measured:
# [1] = read-out: Plasminogen activator inhibitor-1 (PAI1), SERPINE1 (gene 5054); assay: BSK_hDFCGF_PAI1: BioMAP Diversity Plus: hDFCGF Assay for Plasminogen activator inhibitor-1 (PAI1) Biomarker Activity (AID 2283066); settings: actives raise or lower the signal; primary human foreskin fibroblasts
# In short: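 PAI-1 levels, determined by ELISA, served as the endpoint in human foreskin fibroblast cultures exposed to compound for 24 h, with DMSO as baseline.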
# CD69, CD69 (gene 969) = assay: BSK_SAg_CD69: BioMAP Diversity Plus: SAg Assay for CD69 Biomarker Activity (AID 2283089); settings: actives raise or lower the signal; primary human HUVEC with PBMC;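 note: cell surface CD69 protein quantified by ELISA with fluorescence detection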
# In short: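 Values derive from bidirectional fitting relative to DMSO vehicle. Cells: umbilical vein endothelium plus peripheral blood mononuclear cells, treated 24 h before fluorescent ELISA for CD69.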
# [2] = read-out: ATP-citrate lyase (ACLY), ACLY (gene 47); assay: LTEA_HepaRG_ACLY: Life Technologies and Expression Analysis (LTEA) Assay for ATP-citrate lyase (ACLY) using HepaRG (AID 2283466); settings: actives raise or lower the signal; mRNA level, 48 h
# In short: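 Differentiated HepaRG cells exposed 48 h in serum-free induction medium to eight half-log concentrations up to 100 uM in 0.5% DMSO, duplicates. Transcript measured by Fluidigm TaqMan qRT-PCR, normalized to ACTB, GAPDH, POLR2A; bidirectional fit versus DMSO.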
# CYP2C8 (gene 1558) = assay: LTEA_HepaRG_CYP2C8: Life Technologies and Expression Analysis (LTEA) Assay for CYP2C8 using HepaRG (AID 2283483); settings: actives raise or lower the signal; mRNA level, 48 h
# In short: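 Differentiated HepaRG cells in serum-free induction medium exposed 48 h in duplicate to 8 half-log concentrations from 100 uM in 0.5% DMSO. CYP2C8 mRNA by qRT-PCR normalized to ACTB, GAPDH, POLR2A; bidirectional fit versus DMSO.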
# MYC, MYC (gene 4609) = assay: LTEA_HepaRG_MYC: Life Technologies and Expression Analysis (LTEA) Assay for MYC using HepaRG (AID 2283518); settings: actives raise or lower the signal; mRNA level, 48 h
# In short: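 qRT-PCR read-out of MYC transcript (Fluidigm TaqMan, housekeeping-normalized) after 48 h chemical exposure of HepaRG cells; eight concentrations, top 100 uM, half-log steps. Bidirectional curve fitting against 0.5% DMSO vehicle baseline.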
# [3] = biological target: frog Thyroid hormone Receptor alpha (TRa), thra-a (gene 397942) (UniProt P15204); assay: ATG_frTRa_XSP1: Attagene TRANS-FACTORIAL Multi-Species (XSP1) HepG2 Assay for frog Thyroid hormone Receptor alpha (TRa) (AID 2283804; active = hit-call score of the fitted dose curve at least 0.9, where 1 is the maximum)
# In short: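 HepG2 cells transiently transfected with frog TRa-GAL4 chimeric reporter units, dosed 24 hr with 3 nM 6-alpha-fluorotestosterone present; reporter mRNA quantified by RT-PCR, fluorescent labelling and capillary electrophoresis, gain of signal versus DMSO.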
# [4] = CCTE_Shafer_MEA_acute_AB: CCTE's Alamar Blue Assay for Cytotoxicity in the Neural Acute Assay, Shafer Lab (AID 2284069; active = hit-call score of the fitted dose curve at least 0.9, where 1 is the maximum;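 note: active compounds lower the viability signal compared with DMSO wells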)
# In short: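 Cytotoxicity endpoint for acute MEA exposures of primary rat cortical neurons on day 13 or 15. Resazurin reduction is read fluorescently at 544/590 nm, with DMSO as the negative-control baseline.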
# [5] = read-out: Vascular cell adhesion molecule 1 (VCAM1), VCAM1 (gene 7412); assay: BSK_CASM3C_VCAM1: BioMAP Diversity Plus: CASM3C Assay for Vascular cell adhesion molecule 1 (VCAM1) Biomarker Activity (AID 2283055); settings: actives raise or lower the signal; primary human coronary artery smooth muscle cells;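 note: VCAM-1 protein level quantified by ELISA on the cells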
# [6] = read-out: Monokine induced gamma interferon (MIG), CXCL9 (gene 4283); assay: BSK_hDFCGF_MIG: BioMAP Diversity Plus: hDFCGF Assay for Monokine induced gamma interferon (MIG) Biomarker Activity (AID 2283063); settings: actives raise or lower the signal; primary human foreskin fibroblasts
# In short: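 Fibroblasts (human foreskin, primary) dosed, 24 h, MIG by ELISA; fit bidirectional vs DMSO.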
# CD38, CD38 (gene 952) = assay: BSK_SAg_CD38: BioMAP Diversity Plus: SAg Assay for CD38 Biomarker Activity (AID 2283087); settings: actives raise or lower the signal; primary human HUVEC with PBMC
# In short: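 Fluorescence ELISA of cell-surface CD38 served as the read-out, with either increase or decrease fitted against DMSO controls. Cells were a human umbilical vein endothelium plus PBMC co-culture under SEB/TSST-1 stimulation, measured 24 h after dosing.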
# [7] = read-out: Interleukin 6 (IL6), IL6 (gene 3569); assay: LTEA_HepaRG_IL6: Life Technologies and Expression Analysis (LTEA) Assay for Interleukin 6 (IL6) using HepaRG (AID 2283509); settings: actives raise or lower the signal; mRNA level, 48 h
# In short: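 HepaRG cells exposed in duplicate for 48 h to eight half-log concentrations, top 100 uM, in 0.5% DMSO serum-free induction medium. mRNA measured by qRT-PCR, normalized to ACTB, GAPDH and POLR2A. Bidirectional fit versus DMSO.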
# [8] = read-out: Nuclear factor NF-kappa-B p105 subunit (Homo sapiens) (UniProt P19838); assay: LTEA_HepaRG_NFKB1: Life Technologies and Expression Analysis (LTEA) Assay for Nuclear Factor Kappa B Subunit 1 (NFKB1) using HepaRG (AID 2283521); settings: actives raise or lower the signal; mRNA level, 48 h;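 note: differentiated human HepaRG liver cells in serum-free induction medium; TaqMan qRT-PCR transcript normalised to ACTB GAPDH and POLR2A housekeeping genes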
# In short: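 Human HepaRG cells receive eight half-log concentrations, highest 100 uM, for 48 h. NFKB1 expression is then quantified by qRT-PCR and analysed for up- or down-regulation relative to 0.5% DMSO vehicle.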
structure (smiles),measurement,setting,value
CCc1cccc(C)c1N(C(=O)CCl)C(C)COC (stereo not drawn),outcome,[1],inactive
same,AC50,"CD69, CD69 (gene 969)",active: 12.8 µM
same,outcome,[2],inactive
same,outcome,CYP2C8 (gene 1558),inactive
same,outcome,"MYC, MYC (gene 4609)",inactive
same,outcome,[3],inactive
same,outcome,[4],inactive
O=C1c2ccccc2C(=O)N1SC(Cl)(Cl)Cl,AC50,[5],active: 15.1 µM
Oc1c(Cl)c(Cl)c(Cl)c(Cl)c1Cl,outcome,[5],inactive
same,AC50,[6],active: 13.6 µM
same,AC50,"CD38, CD38 (gene 952)",active: 16.8 µM
same,AC50,[7],active: 12.9 µM
same,outcome,[8],inactive
